Measurements reported in the supplement of paper PMC10849652.
The list shows a part of the results.

Sequences of proteins named here, by UniProt entry; tags and fusion partners are left off. A change or cut given only in a name is not applied to a line headed by its entry.
UniProt Q9Y2F5: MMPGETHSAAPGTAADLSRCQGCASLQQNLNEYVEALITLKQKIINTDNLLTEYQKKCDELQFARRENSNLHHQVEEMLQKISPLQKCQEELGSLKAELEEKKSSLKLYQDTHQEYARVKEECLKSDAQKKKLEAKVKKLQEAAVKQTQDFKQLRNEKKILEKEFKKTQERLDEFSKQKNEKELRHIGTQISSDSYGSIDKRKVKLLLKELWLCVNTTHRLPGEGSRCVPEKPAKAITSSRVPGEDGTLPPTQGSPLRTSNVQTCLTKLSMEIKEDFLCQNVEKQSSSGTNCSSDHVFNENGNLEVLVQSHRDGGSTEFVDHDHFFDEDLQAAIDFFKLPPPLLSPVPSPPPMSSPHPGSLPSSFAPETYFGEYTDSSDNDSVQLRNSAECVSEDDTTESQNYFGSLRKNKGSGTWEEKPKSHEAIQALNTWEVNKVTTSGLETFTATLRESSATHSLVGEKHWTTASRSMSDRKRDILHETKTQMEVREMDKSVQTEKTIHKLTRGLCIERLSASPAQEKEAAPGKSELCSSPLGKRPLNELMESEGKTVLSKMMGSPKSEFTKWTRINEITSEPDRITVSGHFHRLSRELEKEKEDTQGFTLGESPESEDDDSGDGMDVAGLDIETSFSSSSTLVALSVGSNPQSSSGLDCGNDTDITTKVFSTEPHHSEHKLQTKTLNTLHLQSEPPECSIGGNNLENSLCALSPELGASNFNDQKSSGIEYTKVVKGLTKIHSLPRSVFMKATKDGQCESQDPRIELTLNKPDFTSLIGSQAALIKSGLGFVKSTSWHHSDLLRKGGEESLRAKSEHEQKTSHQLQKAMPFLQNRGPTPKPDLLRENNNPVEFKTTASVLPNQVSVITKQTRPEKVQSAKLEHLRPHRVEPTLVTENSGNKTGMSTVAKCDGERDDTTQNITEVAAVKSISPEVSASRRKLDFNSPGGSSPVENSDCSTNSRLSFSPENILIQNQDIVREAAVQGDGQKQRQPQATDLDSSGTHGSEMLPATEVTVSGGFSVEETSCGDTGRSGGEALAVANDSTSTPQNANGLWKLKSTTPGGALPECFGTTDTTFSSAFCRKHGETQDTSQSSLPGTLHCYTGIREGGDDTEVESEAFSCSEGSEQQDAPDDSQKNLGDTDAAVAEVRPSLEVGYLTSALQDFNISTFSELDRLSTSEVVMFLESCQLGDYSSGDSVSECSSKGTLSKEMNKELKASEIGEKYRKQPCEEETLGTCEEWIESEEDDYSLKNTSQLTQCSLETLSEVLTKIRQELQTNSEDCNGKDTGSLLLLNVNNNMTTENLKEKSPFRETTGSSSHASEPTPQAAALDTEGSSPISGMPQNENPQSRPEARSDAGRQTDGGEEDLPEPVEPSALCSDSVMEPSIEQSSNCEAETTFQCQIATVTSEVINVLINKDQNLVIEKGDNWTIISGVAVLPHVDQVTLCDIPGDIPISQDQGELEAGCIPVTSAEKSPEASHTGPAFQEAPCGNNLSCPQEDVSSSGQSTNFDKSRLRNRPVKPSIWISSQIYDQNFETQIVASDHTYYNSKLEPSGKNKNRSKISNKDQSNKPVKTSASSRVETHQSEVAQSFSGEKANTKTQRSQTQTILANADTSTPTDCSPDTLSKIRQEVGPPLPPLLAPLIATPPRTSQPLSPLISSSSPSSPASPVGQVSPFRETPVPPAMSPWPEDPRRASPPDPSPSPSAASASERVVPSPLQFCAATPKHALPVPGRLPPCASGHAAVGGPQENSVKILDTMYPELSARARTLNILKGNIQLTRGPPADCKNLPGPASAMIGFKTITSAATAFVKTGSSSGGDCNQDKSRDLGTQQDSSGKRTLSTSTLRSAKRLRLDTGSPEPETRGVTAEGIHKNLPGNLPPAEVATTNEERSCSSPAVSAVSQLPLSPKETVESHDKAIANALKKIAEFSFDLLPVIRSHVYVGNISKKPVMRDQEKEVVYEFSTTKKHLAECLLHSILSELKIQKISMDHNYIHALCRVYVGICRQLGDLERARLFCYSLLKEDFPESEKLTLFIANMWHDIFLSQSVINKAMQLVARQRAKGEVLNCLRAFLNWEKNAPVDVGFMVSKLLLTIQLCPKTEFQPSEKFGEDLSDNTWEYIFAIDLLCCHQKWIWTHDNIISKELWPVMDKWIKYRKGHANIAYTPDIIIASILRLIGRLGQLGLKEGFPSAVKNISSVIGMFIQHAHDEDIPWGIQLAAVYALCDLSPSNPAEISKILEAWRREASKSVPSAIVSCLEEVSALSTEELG
UniProt Q9NP66: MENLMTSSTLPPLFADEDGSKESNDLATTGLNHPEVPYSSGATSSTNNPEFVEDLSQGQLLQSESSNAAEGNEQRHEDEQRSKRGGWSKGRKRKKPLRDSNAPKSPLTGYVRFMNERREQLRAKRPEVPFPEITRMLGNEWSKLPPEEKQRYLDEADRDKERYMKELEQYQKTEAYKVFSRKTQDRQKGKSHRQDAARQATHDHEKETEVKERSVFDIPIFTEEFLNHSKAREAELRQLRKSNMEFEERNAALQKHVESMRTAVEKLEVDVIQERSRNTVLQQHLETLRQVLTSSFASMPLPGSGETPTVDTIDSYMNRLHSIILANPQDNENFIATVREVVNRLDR
UniProt P55795: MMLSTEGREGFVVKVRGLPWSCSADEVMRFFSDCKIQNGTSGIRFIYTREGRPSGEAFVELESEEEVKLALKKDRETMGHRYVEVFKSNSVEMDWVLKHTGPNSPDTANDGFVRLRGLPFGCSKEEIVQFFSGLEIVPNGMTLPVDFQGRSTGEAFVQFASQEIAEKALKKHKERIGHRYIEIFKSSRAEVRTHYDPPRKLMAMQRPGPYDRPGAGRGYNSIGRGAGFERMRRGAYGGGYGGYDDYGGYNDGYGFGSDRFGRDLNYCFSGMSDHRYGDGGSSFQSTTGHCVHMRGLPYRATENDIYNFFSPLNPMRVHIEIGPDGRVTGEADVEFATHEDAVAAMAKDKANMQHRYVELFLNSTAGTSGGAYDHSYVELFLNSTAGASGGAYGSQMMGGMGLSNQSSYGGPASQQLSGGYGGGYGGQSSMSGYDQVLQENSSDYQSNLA
UniProt Q58FF7, whole entry, looked up: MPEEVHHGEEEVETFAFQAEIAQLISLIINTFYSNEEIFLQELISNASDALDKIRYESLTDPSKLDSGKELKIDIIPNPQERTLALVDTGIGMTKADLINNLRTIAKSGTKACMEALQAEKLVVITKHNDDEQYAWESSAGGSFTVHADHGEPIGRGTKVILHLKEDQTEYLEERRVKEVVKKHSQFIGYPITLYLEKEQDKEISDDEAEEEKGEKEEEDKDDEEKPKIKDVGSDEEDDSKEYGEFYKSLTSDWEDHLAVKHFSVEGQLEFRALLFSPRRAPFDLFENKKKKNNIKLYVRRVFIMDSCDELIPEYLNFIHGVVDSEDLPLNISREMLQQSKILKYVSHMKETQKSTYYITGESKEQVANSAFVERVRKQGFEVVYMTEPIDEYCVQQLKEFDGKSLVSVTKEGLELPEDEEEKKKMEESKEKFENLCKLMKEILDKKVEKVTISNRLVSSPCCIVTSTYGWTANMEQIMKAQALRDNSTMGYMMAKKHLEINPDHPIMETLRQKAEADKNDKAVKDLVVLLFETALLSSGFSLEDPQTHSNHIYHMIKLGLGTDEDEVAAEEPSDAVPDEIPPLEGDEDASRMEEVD
UniProt Q5SSJ5: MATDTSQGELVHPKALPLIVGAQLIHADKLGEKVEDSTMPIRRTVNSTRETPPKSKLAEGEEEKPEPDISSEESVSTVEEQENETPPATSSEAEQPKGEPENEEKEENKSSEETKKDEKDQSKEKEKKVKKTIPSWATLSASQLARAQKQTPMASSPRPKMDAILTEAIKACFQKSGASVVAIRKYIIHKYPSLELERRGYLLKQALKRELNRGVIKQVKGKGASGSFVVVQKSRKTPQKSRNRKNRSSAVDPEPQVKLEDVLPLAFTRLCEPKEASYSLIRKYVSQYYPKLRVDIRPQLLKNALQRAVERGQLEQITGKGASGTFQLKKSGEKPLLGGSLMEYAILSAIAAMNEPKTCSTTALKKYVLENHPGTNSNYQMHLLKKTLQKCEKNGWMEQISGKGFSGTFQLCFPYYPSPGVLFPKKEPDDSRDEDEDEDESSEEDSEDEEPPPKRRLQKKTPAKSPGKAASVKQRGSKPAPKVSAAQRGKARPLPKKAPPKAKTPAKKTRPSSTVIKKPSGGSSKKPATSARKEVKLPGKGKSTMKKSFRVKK
UniProt Q6DN03, whole entry, looked up: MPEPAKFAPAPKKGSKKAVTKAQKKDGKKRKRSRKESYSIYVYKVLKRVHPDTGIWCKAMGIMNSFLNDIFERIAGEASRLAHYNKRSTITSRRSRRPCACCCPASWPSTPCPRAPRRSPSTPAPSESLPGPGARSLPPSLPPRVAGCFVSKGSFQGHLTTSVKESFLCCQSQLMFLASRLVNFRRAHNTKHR
UniProt Q96JB3: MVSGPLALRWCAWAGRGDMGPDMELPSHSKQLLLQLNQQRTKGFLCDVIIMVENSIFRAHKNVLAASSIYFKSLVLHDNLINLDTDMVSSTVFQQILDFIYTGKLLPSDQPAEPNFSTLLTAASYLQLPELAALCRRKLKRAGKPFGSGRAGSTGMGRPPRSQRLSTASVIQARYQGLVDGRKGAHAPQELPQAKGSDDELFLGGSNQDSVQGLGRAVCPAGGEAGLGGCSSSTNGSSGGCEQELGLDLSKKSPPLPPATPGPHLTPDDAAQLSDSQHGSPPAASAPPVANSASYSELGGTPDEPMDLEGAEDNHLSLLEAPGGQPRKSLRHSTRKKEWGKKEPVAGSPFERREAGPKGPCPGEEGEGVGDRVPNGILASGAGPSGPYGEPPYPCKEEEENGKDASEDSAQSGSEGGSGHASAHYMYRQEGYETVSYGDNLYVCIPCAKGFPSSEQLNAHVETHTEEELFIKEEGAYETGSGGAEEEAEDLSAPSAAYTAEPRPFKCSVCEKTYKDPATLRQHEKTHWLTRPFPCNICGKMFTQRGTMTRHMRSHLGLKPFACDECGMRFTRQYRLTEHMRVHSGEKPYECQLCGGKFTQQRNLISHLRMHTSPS

Legend:
Assay in all cases: log2 fold change, soluble protein after heating vs DMSO (PISA); higher = thermal stabilisation; K562 cells, 10 uM, 30 min; active = over 0.2 and 3.5 SD of the protein, either way, in both replicates (recomputed)
[1] = compound: CS(=O)(=O)c1ccc(-c2cnc(N)c(C(=O)Nc3ccccc3)n2)cc1
Outline: (§1)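 For each measurement, 10 μM compound was applied for 30 min to K562 cells at 2×10^6 cells/mL. Aliquots were heated for 3 min across 48°C-58°C, pooled, and extracted in PBS with 0.5% NP-40 at 4°C; the supernatant after 21,000xg for 90 min was soluble protein. This was quantified by TMTpro 16plex LC-MS/MS with channel sums equalised, and thermal stability was reported relative to control samples from duplicates, on a log2 fold-change scale.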

crizotinib = compound: C[C@@H](Oc1cc(-c2cnn(C3CCNCC3)c2)cnc1N)c1c(Cl)ccc(F)c1Cl [crizotinib]
Outline: as §1

[2] = compound: C[C@@H]1COCCN1C2=NC(=NC(=C2)C3(CC3)S(=O)(=O)C)C4=C5C=CNC5=CC=C4
Outline: as §1

[3] = compound: C[C@H](C1=CC=C(C=C1)C(=O)NC2=C3C=CNC3=NC=C2)N
Outline: as §1

gandotinib = compound: Cc1cc(Nc2cc(CN3CCOCC3)c3nc(C)c(Cc4ccc(Cl)cc4F)n3n2)n[nH]1 [gandotinib]
Outline: as §1

[4] = compound: Cc1cc(SCc2sc(-c3ccc(C(F)(F)F)cc3)nc2C)ccc1OCC(=O)O
Outline: as §1

doramapimod = compound: Cc1ccc(-n2nc(C(C)(C)C)cc2NC(=O)Nc2ccc(OCCN3CCOCC3)c3ccccc23)cc1 [doramapimod]
Outline: as §1

ispinesib = compound: Cc1ccc(C(=O)N(CCCN)[C@@H](c2nc3cc(Cl)ccc3c(=O)n2Cc2ccccc2)C(C)C)cc1 [ispinesib]
Outline: as §1

bafetinib = compound: Cc1ccc(NC(=O)c2ccc(CN3CC[C@H](N(C)C)C3)c(C(F)(F)F)c2)cc1Nc1nccc(-c2cncnc2)n1 [bafetinib]
Outline: as §1

[5] = compound: Cc1cccc(CC(=O)N2CCc3c2ccc(-c2cn(C)c4ncnc(N)c24)c3F)n1
Outline: as §1

nilotinib = compound: Cc1cn(-c2cc(NC(=O)c3ccc(C)c(Nc4nccc(-c5cccnc5)n4)c3)cc(C(F)(F)F)c2)cn1 [nilotinib]
Outline: as §1

[6] = compound: Cc1nc(Nc2n[nH]c3c2CN(C(=O)N[C@H](CN(C)C)c2ccccc2)C3(C)C)c2sccc2n1
Outline: as §1

dasatinib = compound: Cc1nc(Nc2ncc(C(=O)Nc3c(C)cccc3Cl)s2)cc(N2CCN(CCO)CC2)n1 [dasatinib]
Outline: as §1

[7] = compound: Cc1ncc(-c2ccnc(Nc3ccc(S(C)(=O)=O)cc3)n2)n1C(C)C
Outline: as §1

[8] = compound: Cn1cc(-c2ccc3c(c2)CCN3C(=O)Cc2cccc(C(F)(F)F)c2)c2c(N)ncnc21
Outline: as §1

[9] = compound: Cn1cc(-c2ccc3nnc(C(F)(F)c4ccc5ncccc5c4)n3n2)cn1
Outline: as §1

tipifarnib = compound: Cn1cncc1[C@@](N)(c1ccc(Cl)cc1)c1ccc2c(c1)c(-c1cccc(Cl)c1)cc(=O)n2C [tipifarnib]
Outline: as §1

mubritinib = compound: FC(F)(F)c1ccc(/C=C/c2nc(COc3ccc(CCCCn4ccnn4)cc3)co2)cc1 [mubritinib]
Outline: as §1

duvelisib = compound: C[C@H](Nc1ncnc2nc[nH]c12)c1cc2cccc(Cl)c2c(=O)n1-c1ccccc1 [duvelisib]
Outline: as §1

tozasertib = compound: Cc1cc(Nc2cc(N3CCN(C)CC3)nc(Sc3ccc(NC(=O)C4CC4)cc3)n2)n[nH]1 [tozasertib]
Outline: as §1

Target	log2 fold change [1]	log2 fold change (crizotinib)	log2 fold change [2]	log2 fold change [3]	log2 fold change (gandotinib)	log2 fold change [4]	log2 fold change (doramapimod)	log2 fold change (ispinesib)	log2 fold change (bafetinib)	log2 fold change [5]	log2 fold change (nilotinib)	log2 fold change [6]	log2 fold change (dasatinib)	log2 fold change [7]	log2 fold change [8]	log2 fold change [9]	log2 fold change (tipifarnib)	log2 fold change (mubritinib)	log2 fold change (duvelisib)	log2 fold change (tozasertib)
HIST2H3A (UniProt Q71DI3)	inactive: -0.106	inactive: -0.327	inactive: -0.204	inactive: 0.399	inactive: -0.014	inactive: -0.031	inactive: 0.098	inactive: -0.081	inactive: 0.198	inactive: -0.183	inactive: -0.054	inactive: -0.068	inactive: 0.215	inactive: -0.032	inactive: -0.258	inactive: -0.054	inactive: 0.031	inactive: -0.037	–	–
HSPA8 (UniProt E9PK54)	inactive: -0.05	inactive: -0.023	inactive: -0.272	inactive: 0.334	inactive: 0.01	inactive: 0.088	inactive: 0.143	inactive: 0.012	inactive: 0.096	inactive: -0.069	inactive: -0.105	inactive: -0.011	inactive: 0.011	inactive: 0.072	active: -0.409	inactive: 0.062	inactive: 0.227	inactive: 0.024	–	–
ICE1 (UniProt Q9Y2F5)	inactive: -0.016	inactive: 0.003	inactive: 0.093	–	–	–	inactive: 0.045	–	inactive: -0.119	–	inactive: -0.107	inactive: 0.067	–	inactive: 0.012	–	–	–	inactive: 0.093	–	–
HMG20A (UniProt Q9NP66)	inactive: -0.042	inactive: 0.07	inactive: -0.018	inactive: -0.199	inactive: 0.104	inactive: -0.087	inactive: 0.071	inactive: 0.352	inactive: -0.012	inactive: -0.05	inactive: -0.046	inactive: -0.02	inactive: 0.052	inactive: -0.012	inactive: -0.05	inactive: -0.224	inactive: 0.064	inactive: -0.021	–	–
HNRNPH2 (UniProt P55795)	inactive: 0.029	inactive: -0.171	inactive: 0.096	inactive: -0.023	inactive: 0.06	inactive: 0.177	inactive: -0.024	inactive: -0.159	inactive: 0.056	inactive: 0.006	inactive: -0.09	inactive: -0.231	inactive: -0.061	inactive: -0.103	inactive: -0.021	inactive: 0.041	inactive: -0.236	inactive: -0.115	–	–
HSP90AB3P (UniProt Q58FF7)	inactive: 0.004	inactive: 0.001	–	inactive: 0.086	inactive: -0.068	inactive: 0.001	inactive: -0.048	inactive: -0.035	inactive: 0.038	inactive: 0.166	inactive: 0.052	inactive: -0.095	inactive: 0.049	inactive: 0.124	inactive: -0.016	inactive: -0.007	inactive: -0.195	inactive: -0.059	inactive: 0.118	–
HP1BP3 (UniProt Q5SSJ5)	inactive: 0.002	inactive: -0.121	inactive: -0.013	inactive: 0.163	inactive: 0.039	inactive: 0.121	inactive: 0.035	inactive: -0.079	inactive: 0.017	inactive: -0.082	inactive: 0.055	inactive: -0.008	inactive: 0.009	inactive: 0.125	inactive: -0.045	inactive: -0.087	inactive: 0.028	inactive: 0.026	–	–
HIST2H2BC (UniProt Q6DN03)	inactive: 0.054	inactive: -0.109	inactive: -0.317	–	inactive: 0.113	inactive: -0.122	inactive: 0.135	inactive: -0.18	inactive: 0.114	inactive: -0.206	inactive: -0.045	inactive: 0.029	inactive: 0.218	inactive: -0.001	–	inactive: -0.048	inactive: 0.12	inactive: -0.222	inactive: -0.151	inactive: 0.03
HIST2H2BF isoform 2 (UniProt Q5QNW6)	inactive: -0.049	inactive: -0.095	inactive: -0.279	inactive: 0.38	inactive: -0.018	inactive: -0.064	inactive: 0.253	inactive: -0.178	inactive: 0.211	inactive: -0.189	inactive: -0.044	inactive: -0.006	inactive: 0.147	inactive: 0.012	inactive: -0.358	inactive: -0.098	inactive: -0.018	inactive: -0.173	–	–
HIC2 (UniProt Q96JB3)	inactive: -0.037	inactive: 0.067	inactive: -0.079	inactive: 0.043	inactive: 0.088	inactive: 0.011	inactive: 0.121	inactive: -0.061	inactive: 0.065	inactive: 0.006	inactive: 0.075	active: -0.446	inactive: 0.071	inactive: -0.181	inactive: -0.124	inactive: -0.032	inactive: -0.051	inactive: -0.051	–	–

Whole records, quoted from the list. Values in the order: log2 fold change [1]	log2 fold change (crizotinib)	log2 fold change [2]	log2 fold change [3]	log2 fold change (gandotinib)	log2 fold change [4]	log2 fold change (doramapimod)	log2 fold change (ispinesib)	log2 fold change (bafetinib)	log2 fold change [5]	log2 fold change (nilotinib)	log2 fold change [6]	log2 fold change (dasatinib)	log2 fold change [7]	log2 fold change [8]	log2 fold change [9]	log2 fold change (tipifarnib)	log2 fold change (mubritinib)	log2 fold change (duvelisib)	log2 fold change (tozasertib)
HIST2H2BC (UniProt Q6DN03) is entered as inactive: 0.054	inactive: -0.109	inactive: -0.317	–	inactive: 0.113	inactive: -0.122	inactive: 0.135	inactive: -0.18	inactive: 0.114	inactive: -0.206	inactive: -0.045	inactive: 0.029	inactive: 0.218	inactive: -0.001	–	inactive: -0.048	inactive: 0.12	inactive: -0.222	inactive: -0.151	inactive: 0.03
HIST2H2BF isoform 2 (UniProt Q5QNW6) is entered as inactive: -0.049	inactive: -0.095	inactive: -0.279	inactive: 0.38	inactive: -0.018	inactive: -0.064	inactive: 0.253	inactive: -0.178	inactive: 0.211	inactive: -0.189	inactive: -0.044	inactive: -0.006	inactive: 0.147	inactive: 0.012	inactive: -0.358	inactive: -0.098	inactive: -0.018	inactive: -0.173	–	–
